{
  "sequences": {"note": "Protein sequences, listed by entry. Tags and fused reporters are not part of them.", "UniProt Q92963": "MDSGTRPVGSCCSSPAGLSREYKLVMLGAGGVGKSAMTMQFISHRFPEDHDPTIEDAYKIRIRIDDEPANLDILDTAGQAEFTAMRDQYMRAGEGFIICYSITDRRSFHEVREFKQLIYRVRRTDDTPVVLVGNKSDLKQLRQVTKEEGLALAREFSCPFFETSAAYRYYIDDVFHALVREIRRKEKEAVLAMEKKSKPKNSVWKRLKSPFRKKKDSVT"},
  "source": "paper doi:10.1101/2020.03.14.989954",
  "assay_in_all_cases": "co-IP",
  "key": {"[1]": {"target": "T1, KLHL11 (UniProt Q9NVR0)", "T1 sequence": "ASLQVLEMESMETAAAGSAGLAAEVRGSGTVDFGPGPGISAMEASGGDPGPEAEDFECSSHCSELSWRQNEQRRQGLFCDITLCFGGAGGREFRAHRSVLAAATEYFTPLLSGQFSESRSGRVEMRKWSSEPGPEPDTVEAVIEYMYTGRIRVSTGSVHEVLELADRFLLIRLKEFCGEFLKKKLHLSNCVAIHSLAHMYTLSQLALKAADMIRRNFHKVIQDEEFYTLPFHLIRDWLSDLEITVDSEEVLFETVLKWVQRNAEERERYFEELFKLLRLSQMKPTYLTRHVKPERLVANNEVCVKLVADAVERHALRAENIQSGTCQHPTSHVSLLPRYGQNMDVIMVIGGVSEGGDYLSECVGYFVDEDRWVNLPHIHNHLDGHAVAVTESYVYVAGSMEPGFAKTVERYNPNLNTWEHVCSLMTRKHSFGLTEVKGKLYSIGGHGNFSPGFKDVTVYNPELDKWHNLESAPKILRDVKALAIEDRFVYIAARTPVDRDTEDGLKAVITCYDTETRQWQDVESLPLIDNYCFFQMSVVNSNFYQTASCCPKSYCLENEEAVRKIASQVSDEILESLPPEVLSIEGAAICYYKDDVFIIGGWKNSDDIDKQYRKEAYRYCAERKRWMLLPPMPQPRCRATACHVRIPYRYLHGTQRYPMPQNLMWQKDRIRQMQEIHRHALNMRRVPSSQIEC"}, "[2]": {"target": "T2, LZTR1 R810W (UniProt Q8N653)", "T2 sequence": "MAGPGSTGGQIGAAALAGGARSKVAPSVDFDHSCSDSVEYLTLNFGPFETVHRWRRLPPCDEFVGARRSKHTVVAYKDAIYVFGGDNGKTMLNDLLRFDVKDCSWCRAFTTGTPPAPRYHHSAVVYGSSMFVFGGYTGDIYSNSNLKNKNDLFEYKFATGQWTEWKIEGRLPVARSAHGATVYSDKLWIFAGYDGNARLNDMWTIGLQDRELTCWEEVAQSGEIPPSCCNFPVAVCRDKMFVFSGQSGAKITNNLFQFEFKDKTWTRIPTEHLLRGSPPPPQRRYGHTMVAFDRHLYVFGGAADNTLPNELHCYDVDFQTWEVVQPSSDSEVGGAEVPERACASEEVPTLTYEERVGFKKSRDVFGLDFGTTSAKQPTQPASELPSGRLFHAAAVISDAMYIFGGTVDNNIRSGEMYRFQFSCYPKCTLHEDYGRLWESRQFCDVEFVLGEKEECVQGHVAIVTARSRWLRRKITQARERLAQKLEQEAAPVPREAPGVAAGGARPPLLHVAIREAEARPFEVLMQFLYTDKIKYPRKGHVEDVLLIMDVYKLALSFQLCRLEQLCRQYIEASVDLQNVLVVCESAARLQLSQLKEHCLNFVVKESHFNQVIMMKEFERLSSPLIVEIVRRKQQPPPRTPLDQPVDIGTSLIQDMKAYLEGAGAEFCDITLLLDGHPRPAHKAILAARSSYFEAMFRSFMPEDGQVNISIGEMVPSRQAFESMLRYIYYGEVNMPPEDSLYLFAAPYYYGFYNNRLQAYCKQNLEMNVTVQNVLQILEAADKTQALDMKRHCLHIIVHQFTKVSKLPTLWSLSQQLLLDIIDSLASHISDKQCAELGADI"}, "[3]": {"target": "T3, LZTR1, wild type, full length (transfected, Figs 1H, 3B, 3E, 3G, 4B) (UniProt Q8N653)", "T3 sequence": "T2 sequence with W810R"}},
  "note": "Where a chain is given by its changes, count along the chain named. Results are given in words; binding and its absence hold for the method and conditions named. Binding seen in cells or lysates may run through a third protein. Some entries that bind do so weakly or less than the wild type.",
  "data": [
    {"substance": "RIT1, wild type, full length (Figs 1H, 3B, 3G, 4B) (from UniProt Q92963 1-219)", "values": [
      {"measurement": "binding", "setting": "[1]", "value": "no binding"},
      {"measurement": "binding", "setting": "[2]", "value": "binds"},
      {"measurement": "binding", "setting": "[3]", "value": "binds"}
    ]}
  ]
}
